Measurements taken from the supplement of paper PMC4604168 (melanoma cell lines).
This is one part of the list. Repeats are few or missing, and single values can be far off.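 Cells were imaged in 1,536-well plates, and nuclei stained with an antibody against cleaved PARP were counted against all DNA-stained nuclei to give the apoptosis fraction. Screening doses were chosen to leave most cells alive, and resting and induced cleaved-PARP levels differ strongly between cell lines.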

System: CBRC013 (line from a melanoma biopsy)
Test: cleaved PARP positive nuclei fraction relative to DMSO control; melanoma cells; higher = more apoptosis
Conditions: library dose: low library concentration; 72 h

Row | Compound | cleaved PARP positive nuclei fraction
1 | Cc1nc(Nc2ncc(C(=O)Nc3c(C)cccc3Cl)s2)cc(N2CCN(CCO)CC2)n1 [dasatanib] + O=C(CCCCCCC(=O)Nc1ccccc1)NO [vorinostat] (first compound 0.004 µM, partner dose 0.08 µM) | 71.3%
2 | Nc1cccc2c1CN(C1CCC(=O)NC1=O)C2=O (stereo unspecified) [lenalidomide] + CC(C)(C)c1cnc(CSc2cnc(NC(=O)C3CCNCC3)s2)o1 [SNS-032] (first compound 1 µM, partner dose 0.01 µM) | 147%
3 | OCc1c[nH]c2ccccc12 [Indole-3-carbinol] + Cc1ccc(NC(=O)c2cccc(N(C)C)c2)cc1NC(=O)c1ccc(O)cc1 [ZM336372] (first compound 0.8 µM, partner dose 2 µM) | 97%
4 | COc1cc(Nc2ncc(F)c(Nc3ccc4c(n3)NC(=O)C(C)(C)O4)n2)cc(OC)c1OC [Tamatinib] + COc1cc2c(Oc3ccc4[nH]c(C)cc4c3F)ncnc2cc1OCCCN1CCCC1 [cediranib] (first compound 0.4 µM, partner dose 0.4 µM) | 130%
5 | C#Cc1cccc(Nc2ncnc3cc(OCCOC)c(OCCOC)cc23)c1 [erlotinib] + CC(C)(C)c1cnc(CSc2cnc(NC(=O)C3CCNCC3)s2)o1 [SNS-032] (first compound 0.8 µM, partner dose 0.01 µM) | 141%
6 | Clc1ccc(Nc2nnc(Cc3ccncc3)c3ccccc23)cc1 [vatalanib] + Cc1cc(N2CCOCC2)cc2[nH]c(-c3c(NC[C@@H](O)c4cccc(Cl)c4)cc[nH]c3=O)nc12 [BMS536924] (first compound 2 µM, partner dose 0.2 µM) | 120%
